# Data from PubChem BioAssay AID493014 (National Center for Advancing Translational Sciences (NCATS), 2011).
# The other results are listed elsewhere or left out. Further columns of the screen follow, without active or inactive calls. Most of these compounds were active or inconclusive in the main read-out, so they are no random draw. Words in brackets tell the shape of the fitted curve; partial curves, single points and poor fits give uncertain potencies.
# Assay: qHTS Assay to Find Inhibitors of Chronic Active B-Cell Receptor Signaling
# Settings: ABC-DLBCL IkBa-CBG/CBR reporter, luminescence ratio (green luciferase fused to IkBa over red control in TMD8 lymphoma cells), 4 h
# In short: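 Cell line TMD8 (human ABC DLBCL), stably expressing tet-inducible CBG68-IkBa fusion and CBR; IMDM/0.5% FBS; cpd up to 46 uM; dox induction, 4 h, 37C/5% CO2; dual luminescence; green/red ratio; MG132 control.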
# [1] = measured here: CBR red luminescence, cell number
compound,measurement,setting,value
COc1ccc(CC(=O)Nc2sc3c(c2C(N)=O)CCCC3)cc1,AC50,[1],"25.1 µM [falling, single point]"
CCCc1c(C(=O)Nc2ccc(F)cc2C)cnn1-c1ccccc1,AC50,[1],"6.31 µM [falling, partial curve, poor fit]"
Cc1cc2nc(CCN(C(=S)NCC3CCCO3)C3CCCC3)[nH]c2cc1C (stereo unspecified),AC50,[1],"35.5 µM [falling, single point]"
COc1cccc(NC(=O)c2oc3ccc(S(=O)(=O)N4CCCCCC4)cc3c2C)c1,AC50,[1],"7.08 µM [falling, partial curve, poor fit]"
O=C(COC(=O)c1ccco1)c1ccc(Cl)cc1,AC50,[1],"35.5 µM [rising, single point]"
Cc1cc(C)cc(NC(=O)N2CCN(Cc3ccc4c(c3)OCO4)CC2)c1,AC50,[1],"15.8 µM [falling, single point]"
COc1ccc(C2=NS(=O)(=O)N(C)C(C(=O)N3CCc4ccccc4C3)=C2)cc1OC,AC50,[1],"12.6 µM [falling, single point]"
CC(=O)Oc1ccccc1N1C(=O)c2ccc(C(=O)O)cc2C1=O,AC50,[1],"6.51 µM [falling, partial curve]"
N#Cc1c(N2CCN(C(=O)c3ccco3)CC2)nc(-c2ccccc2)c2c1CCCC2,AC50,[1],"14.1 µM [falling, partial curve, poor fit]"
O=C(N/N=C/c1ccncc1)c1ccccn1,AC50,[1],"8.91 µM [falling, partial curve, poor fit]"
CCN(CC)CCn1c(=N)n(CC(=O)c2ccc(Br)s2)c2ccccc21,AC50,[1],"10 µM [falling, partial curve]"
CSc1ccccc1OCc1cc(C(=O)N2CCC(Oc3cccnc3)CC2)no1,AC50,[1],"35.5 µM [falling, single point]"
O=S(=O)(NCC(c1ccco1)N1CCN(c2ccccc2)CC1)c1cc(F)ccc1F (stereo unspecified),AC50,[1],"0.112 µM [rising, full curve, poor fit]"
COCCNCCCCOc1ccccc1-c1ccccc1,AC50,[1],"20.6 µM [falling, partial curve, poor fit]"
CCCCc1nc2ccccc2c(N)c1CCC (tested in a mixture with another compound),AC50,[1],"29.1 µM [falling, single point]"
Cc1ccccc1OCC(=O)N=Nc1c(O)n(C)c2ccccc12,AC50,[1],"35.5 µM [rising, single point]"
O=C(Nc1ccc(F)cc1F)c1ccc(-n2cncn2)nc1,AC50,[1],"6.51 µM [falling, single point]"
COc1cc(SC)ccc1C(=O)OC(C)C(=O)Nc1ccc(NC(C)=O)cc1 (stereo unspecified),AC50,[1],"10 µM [falling, partial curve, poor fit]"
O=C(/C=C/c1ccccc1)NCCc1ccc2c(c1)OCCO2,AC50,[1],"29.1 µM [falling, single point]"
CCc1cc(C(=O)O)c(NC(=O)c2cc(OC)c(OC)c(OC)c2)s1,AC50,[1],"12.6 µM [falling, partial curve]"
O=C(O)C1CCN(C(=O)CSc2nc3cc(Cl)ccc3c(=O)n2Cc2ccccc2)CC1,AC50,[1],"8.91 µM [falling, partial curve, poor fit]"
O=C(NCCCN1CCCC1=O)C1CCN(S(=O)(=O)c2cccc(Cl)c2Cl)CC1,AC50,[1],"23.1 µM [rising, partial curve, poor fit]"
CCCCOc1ccc(CSc2nncn2N)cc1,AC50,[1],"35.5 µM [rising, single point]"
CCCCNc1oc(-c2ccc(OC)cc2)nc1S(=O)(=O)c1ccccc1,AC50,[1],"9.2 µM [falling, partial curve]"
S=c1[nH]nc(-c2ccc(Cl)cc2Cl)n1-c1ccccc1,AC50,[1],"2.24 µM [falling, full curve, poor fit]"
CNC(=O)c1cc(NC(=O)CCn2nc(-c3ccc(C)cc3)c3ccccc3c2=O)ccc1OC,AC50,[1],"3.16 µM [falling, full curve, poor fit]"
Cc1cc(=O)oc2cc(OCC(=O)OCC(=O)NC(=O)NC(C)C)ccc12,AC50,[1],"6.31 µM [rising, single point]"
CC(C)(C)NCC(O)COc1ccccc1C1CCCC1 (stereo unspecified),AC50,[1],"29.1 µM [falling, single point]"
Cn1cc(Br)c(C(=O)NNC(=O)Nc2ccccc2C(F)(F)F)n1,AC50,[1],"4.47 µM [falling, partial curve, poor fit]"
O=C(NCc1cccs1)c1ccc(N2CCCC2=O)cc1,AC50,[1],"0.00731 µM [rising, full curve, poor fit]"
Cc1cccc(NC(=O)CSc2nc3n[nH]c(C)c3c(=N)n2-c2cccc(Cl)c2)c1,AC50,[1],"12.6 µM [falling, partial curve, poor fit]"
Cc1ccc(CSCC(=O)Nc2ccc(F)cc2)cc1,AC50,[1],"11.6 µM [falling, partial curve, poor fit]"
Cc1ccc(Nc2nc(-c3ccc(O)cc3O)cs2)nc1,AC50,[1],"12.6 µM [falling, partial curve, poor fit]"
CCOc1ccc(NC(=O)c2cnccn2)cc1,AC50,[1],"11.6 µM [falling, partial curve]"
O=C(c1ccccc1S(=O)(=O)NCc1ccccc1)N1CCCC1,AC50,[1],"29.1 µM [rising, single point]"
CCC1Oc2ccc(C)cc2N(CC(=O)NCc2cccc(OC)c2)C1=O (stereo unspecified),AC50,[1],"0.1 µM [falling, full curve, poor fit]"
CCNC(=O)NNC(=O)C1CC(c2cccs2)=NO1 (stereo unspecified),AC50,[1],"31.6 µM [rising, partial curve, poor fit]"
Cc1cc(C)n2nc(S(=O)(=O)Nc3c(Cl)cccc3Cl)nc2n1,AC50,[1],"0.1 µM [rising, full curve, poor fit]"
CCCNC(=O)N1CCN(c2nc(C(C)C)c3c(c2C#N)CC(C)(C)OC3)CC1,AC50,[1],"6.51 µM [rising, single point]"
COC(=O)CSc1nnc(CNC(=O)c2cc(OC)cc(OC)c2)n1-c1ccc(F)cc1,AC50,[1],"2.82 µM [falling, full curve, poor fit]"
O=C(Nc1cccc(O)c1)c1ccc(C(=O)c2ccccc2)o1,AC50,[1],"20 µM [falling, single point]"
Cc1sc2ncnc(N3CCC(C(=O)NNC(=O)COc4ccc(Br)cc4)CC3)c2c1C,AC50,[1],"29.1 µM [falling, single point]"
O=C(COc1ccccc1)Nc1cccc(-c2nc3ccccc3[nH]2)c1,AC50,[1],"3.26 µM [falling, partial curve]"
Cn1c(-c2ccc3ccccc3n2)nc2cnccc21,AC50,[1],"0.447 µM [rising, full curve, poor fit]"
COc1cccc(C(=O)NC(Cc2ccccc2)c2ccc3c(c2)OCCCO3)c1 (stereo unspecified),AC50,[1],"4.11 µM [falling, full curve, poor fit]"
Cc1cc(/C=N/NC(=O)c2cccs2)c(C)n1-c1ccccc1,AC50,[1],"18.4 µM [falling, single point]"
Cc1ccc(NC(=O)/C=C/c2ccco2)cc1F,AC50,[1],"10 µM [falling, partial curve, poor fit]"
CCc1nnc(NC(=O)CSc2ccc(-c3ccc(F)cc3)nn2)s1,AC50,[1],"7.08 µM [rising, partial curve, poor fit]"
CC(C)N1CCC(=NNc2ccc([N+](=O)[O-])cc2S(=O)(=O)N2CCOCC2)CC1,AC50,[1],"8.91 µM [rising, partial curve, poor fit]"
S=C(Nc1ccc(Cl)cc1Cl)NC1CCN(Cc2ccccc2)CC1,AC50,[1],"29.1 µM [falling, single point]"
CCOc1nc2ccccc2cc1C=O,AC50,[1],"14.1 µM [rising, single point]"
Cn1cnc([N+](=O)[O-])c1Sc1ccc(C(C)(C)C)cc1,AC50,[1],"12.6 µM [falling, single point]"
CC1(C)CC(=O)C(C=Nc2ccc3cn[nH]c3c2)=C(O)C1,AC50,[1],"14.1 µM [falling, partial curve]"
same,AC50,measured here: IkBa-CBG green luminescence,"11.2 µM [falling, partial curve, poor fit]"
O=C1N2CCCc3cccc(c32)C12Nc1ccccc1S2 (stereo unspecified),AC50,[1],"2.31 µM [rising, single point]"
CC(C)Sc1nc2ccc(Br)cc2[nH]1,AC50,[1],"3.16 µM [rising, full curve, poor fit]"
CN(C)C=NC1=NN(c2cccc(C(F)(F)F)c2)CC1,AC50,[1],"23.1 µM [rising, single point]"
O=C(Nc1ccc2oc(=O)ccc2c1)c1cccnc1,AC50,[1],"13 µM [falling, partial curve]"
COc1cc2c(cc1NC(=O)c1ccncc1)oc1ccccc12,AC50,[1],"18.4 µM [falling, single point]"
Nc1ccc(C(=O)Nc2nccs2)cc1,AC50,[1],"22.4 µM [falling, partial curve, poor fit]"
COc1cc(/C=C(\C#N)c2ccccn2)cc(OC)c1O,AC50,[1],"0.112 µM [falling, full curve, poor fit]"
Cc1c(C(=O)Nc2ccc(Oc3ccccc3)cc2)sc2nc3n(c(=O)c12)CCC3,AC50,[1],"35.5 µM [falling, single point]"
Cn1nnnc1Sc1ncnc2scc(-c3ccccc3)c12,AC50,[1],"13 µM [falling, single point]"
COc1ccc(C)cc1N(C(=O)c1ccccc1)c1nc2ccccc2s1,AC50,[1],"23.1 µM [falling, single point]"
COc1ccccc1-c1cc(C(=O)N2CCCc3ccccc32)no1,AC50,[1],"20 µM [falling, partial curve, poor fit]"
CCOC(=O)N1CCC2(CC1)C(C#N)=C(N)Oc1c2c(C)nn1-c1cccc(Cl)c1,AC50,[1],"8.2 µM [falling, partial curve, poor fit]"

# 3 neighbouring records from above:
compound,measurement,setting,value
COc1cccc(C(=O)NC(Cc2ccccc2)c2ccc3c(c2)OCCCO3)c1 (stereo unspecified),AC50,[1],"4.11 µM [falling, full curve, poor fit]"
Cc1cc(/C=N/NC(=O)c2cccs2)c(C)n1-c1ccccc1,AC50,[1],"18.4 µM [falling, single point]"
Cc1ccc(NC(=O)/C=C/c2ccco2)cc1F,AC50,[1],"10 µM [falling, partial curve, poor fit]"
